Four molecules from paper PMC11920102 can be followed below.

The chains behind the UniProt entries cited, without tags or fusion partners. Where a name states a change or a piece, a line headed by the entry shows the natural chain unless it says otherwise. A line that says so, or that is headed by a name, gives the form on record, which may keep a tag or linker.
Drp1 (Homo sapiens, Isoform 3), fluorescently tagged (O00429-4, form named): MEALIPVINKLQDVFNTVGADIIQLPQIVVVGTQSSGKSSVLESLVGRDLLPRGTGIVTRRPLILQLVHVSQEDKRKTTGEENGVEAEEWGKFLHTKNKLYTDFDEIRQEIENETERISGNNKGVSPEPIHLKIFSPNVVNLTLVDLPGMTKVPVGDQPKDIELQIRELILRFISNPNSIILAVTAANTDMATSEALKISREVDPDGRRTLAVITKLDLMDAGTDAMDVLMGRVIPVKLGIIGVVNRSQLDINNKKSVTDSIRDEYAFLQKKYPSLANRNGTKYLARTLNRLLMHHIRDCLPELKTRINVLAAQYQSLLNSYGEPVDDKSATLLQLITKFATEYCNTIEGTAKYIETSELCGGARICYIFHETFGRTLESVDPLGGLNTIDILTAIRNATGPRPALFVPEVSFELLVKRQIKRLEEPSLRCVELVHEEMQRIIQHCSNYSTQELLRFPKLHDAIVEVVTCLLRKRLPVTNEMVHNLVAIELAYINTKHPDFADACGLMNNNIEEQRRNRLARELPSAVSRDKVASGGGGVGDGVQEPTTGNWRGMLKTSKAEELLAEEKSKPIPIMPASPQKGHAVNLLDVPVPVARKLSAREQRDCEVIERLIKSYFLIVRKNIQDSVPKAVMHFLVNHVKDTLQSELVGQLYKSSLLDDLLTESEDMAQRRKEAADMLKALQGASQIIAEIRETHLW

Common to all, as to test: rapamycin-induced rerouting to the OMM (live-cell confocal imaging); FKBP-tagged bait rerouted to the OMM-targeted FRB with rapamycin in live cells; relocalisation of the fluorescently tagged prey followed in real time
The target of test [1] is T1, FKBP-EndoB1^CT (Residues 269–365) (Homo sapiens) (UniProt Q9Y371).
T1 sequence: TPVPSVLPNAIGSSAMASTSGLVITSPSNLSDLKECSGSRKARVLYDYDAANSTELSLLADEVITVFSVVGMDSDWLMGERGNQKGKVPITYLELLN

The target of test [2] is T2, EndoB1 (Full-Length, Residues 1–365) (Homo sapiens), Q9Y371.
T2 chain: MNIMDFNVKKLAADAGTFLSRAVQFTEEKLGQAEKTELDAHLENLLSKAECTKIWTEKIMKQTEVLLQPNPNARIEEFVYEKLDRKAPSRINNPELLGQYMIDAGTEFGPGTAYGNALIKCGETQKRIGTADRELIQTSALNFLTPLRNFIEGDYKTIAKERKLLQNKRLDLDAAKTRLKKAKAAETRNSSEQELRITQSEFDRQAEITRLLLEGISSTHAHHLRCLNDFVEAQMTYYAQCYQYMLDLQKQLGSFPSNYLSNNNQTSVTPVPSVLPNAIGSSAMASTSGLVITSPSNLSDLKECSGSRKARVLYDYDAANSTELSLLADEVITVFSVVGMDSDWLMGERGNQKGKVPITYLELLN
Conditions: remark: other sources report otherwise.

For test [3], the target named is T3, EndoB1^L227D (Homo sapiens) (UniProt Q9Y371).
T3 sequence: T2 chain with L227D

Test [4] deals with T4, EndoB1 (Full-Length, Residues 1–365) (Homo sapiens) (UniProt Q9Y371).
T4 sequence: T2 chain

Where a chain is given by its changes, count along the chain named. Names may count otherwise. These are yes or no findings as the source states them, for the method shown. Some binding calls cover weakened binding; strength is not graded here.

In the case of “Drp1 (Homo sapiens, Isoform 3), fluorescently tagged (from UniProt O00429-4 1-699)”, the binding entry in test [1] was “no binding”.

B1: EndoB1 (Full-Length, Residues 1–365), Q9Y371 1-365 (protein)
chain: T2 chain
As for B1, the binding result in test [2] is “binds”.

B2: EndoB1 (Full-Length, Residues 1–365) (protein, UniProt Q9Y371 1-365)
chain: T2 chain
Take B2: the binding entry in test [3] is recorded as “no binding”.

B3: EndoB1^L227D (protein, UniProt Q9Y371 1-365)
chain: T2 chain with L227D
Regarding B3, in test [4], the binding entry is “no binding”.
